The other results are listed elsewhere or left out.
Compound: CC1Cc2ccccc2N1C(=O)C1CCCN(C1)C(=O)CCl (mixture of isomers) [TRIM25 ligand 11 (diastereomer mixture)]
Experiment: probe-labelled cysteine peptide fold change vs DMSO (competition) (log2 fold change); higher = less target engagement (more negative = stronger competition)
Details: THP-1, incubation time: 4 h
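Note: competitive chemoproteomic profiling in live THP-1 cells with an iodoacetamide desthiobiotin (IA-DTB) probe, comparing probe-labelled peptide intensities in compound-treated cells against DMSO-treated controls.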

The chains behind the UniProt entries cited, without tags or fusion partners. Where a name states a change or a piece, a line headed by the entry shows the natural chain unless it says otherwise.
UniProt Q14839: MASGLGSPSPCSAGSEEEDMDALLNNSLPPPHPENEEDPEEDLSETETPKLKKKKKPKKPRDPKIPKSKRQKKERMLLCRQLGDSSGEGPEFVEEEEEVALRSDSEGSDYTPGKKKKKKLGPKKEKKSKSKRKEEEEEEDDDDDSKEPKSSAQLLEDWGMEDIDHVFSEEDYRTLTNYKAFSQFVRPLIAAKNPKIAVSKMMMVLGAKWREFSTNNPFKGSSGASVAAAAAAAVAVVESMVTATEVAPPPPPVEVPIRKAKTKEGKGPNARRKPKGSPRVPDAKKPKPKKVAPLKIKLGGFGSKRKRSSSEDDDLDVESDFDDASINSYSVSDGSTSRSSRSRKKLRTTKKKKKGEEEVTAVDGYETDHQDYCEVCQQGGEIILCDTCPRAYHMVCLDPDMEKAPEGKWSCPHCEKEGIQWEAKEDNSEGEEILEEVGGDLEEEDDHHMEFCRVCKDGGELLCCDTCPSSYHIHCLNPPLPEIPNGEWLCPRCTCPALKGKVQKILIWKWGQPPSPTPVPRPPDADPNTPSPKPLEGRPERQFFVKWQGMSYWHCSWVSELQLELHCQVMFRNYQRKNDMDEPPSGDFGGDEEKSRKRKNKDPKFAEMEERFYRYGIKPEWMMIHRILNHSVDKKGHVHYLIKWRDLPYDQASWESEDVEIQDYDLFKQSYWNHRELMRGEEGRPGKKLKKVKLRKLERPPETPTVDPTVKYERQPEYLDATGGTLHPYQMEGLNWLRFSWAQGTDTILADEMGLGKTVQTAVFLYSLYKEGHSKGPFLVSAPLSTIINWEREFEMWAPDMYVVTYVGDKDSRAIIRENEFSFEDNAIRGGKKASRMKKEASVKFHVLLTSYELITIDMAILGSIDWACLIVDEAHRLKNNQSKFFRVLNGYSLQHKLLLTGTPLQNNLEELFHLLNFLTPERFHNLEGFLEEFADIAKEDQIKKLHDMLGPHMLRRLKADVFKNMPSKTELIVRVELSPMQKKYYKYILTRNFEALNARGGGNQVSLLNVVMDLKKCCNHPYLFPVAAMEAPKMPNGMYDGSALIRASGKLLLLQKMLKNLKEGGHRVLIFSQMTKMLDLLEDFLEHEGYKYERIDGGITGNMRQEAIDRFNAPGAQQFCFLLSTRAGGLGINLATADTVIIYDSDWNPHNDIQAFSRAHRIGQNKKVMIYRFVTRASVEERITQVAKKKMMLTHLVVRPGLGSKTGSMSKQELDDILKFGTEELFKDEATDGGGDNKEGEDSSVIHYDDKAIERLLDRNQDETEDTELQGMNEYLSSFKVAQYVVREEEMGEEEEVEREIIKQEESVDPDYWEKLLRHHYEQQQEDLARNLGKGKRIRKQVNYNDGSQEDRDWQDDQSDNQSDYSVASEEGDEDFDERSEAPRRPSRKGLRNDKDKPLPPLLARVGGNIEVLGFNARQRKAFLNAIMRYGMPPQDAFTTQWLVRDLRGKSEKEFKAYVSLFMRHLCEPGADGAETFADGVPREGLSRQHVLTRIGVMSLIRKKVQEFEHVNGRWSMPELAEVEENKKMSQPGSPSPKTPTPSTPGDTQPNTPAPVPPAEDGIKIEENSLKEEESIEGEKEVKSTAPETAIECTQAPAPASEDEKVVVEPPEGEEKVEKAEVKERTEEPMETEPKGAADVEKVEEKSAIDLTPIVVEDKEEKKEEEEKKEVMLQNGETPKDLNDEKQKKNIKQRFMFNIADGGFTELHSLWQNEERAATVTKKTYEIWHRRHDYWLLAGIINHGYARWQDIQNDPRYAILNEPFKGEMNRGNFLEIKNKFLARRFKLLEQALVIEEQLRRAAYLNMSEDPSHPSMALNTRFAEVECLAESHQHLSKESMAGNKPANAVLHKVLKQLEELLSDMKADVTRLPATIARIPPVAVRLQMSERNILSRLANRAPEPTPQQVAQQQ
UniProt P23528, whole entry, looked up: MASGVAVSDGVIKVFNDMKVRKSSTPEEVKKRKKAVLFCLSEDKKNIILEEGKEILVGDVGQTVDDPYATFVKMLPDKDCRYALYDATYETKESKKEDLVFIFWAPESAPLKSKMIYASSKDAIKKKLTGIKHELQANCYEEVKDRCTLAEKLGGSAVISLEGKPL
UniProt P53675: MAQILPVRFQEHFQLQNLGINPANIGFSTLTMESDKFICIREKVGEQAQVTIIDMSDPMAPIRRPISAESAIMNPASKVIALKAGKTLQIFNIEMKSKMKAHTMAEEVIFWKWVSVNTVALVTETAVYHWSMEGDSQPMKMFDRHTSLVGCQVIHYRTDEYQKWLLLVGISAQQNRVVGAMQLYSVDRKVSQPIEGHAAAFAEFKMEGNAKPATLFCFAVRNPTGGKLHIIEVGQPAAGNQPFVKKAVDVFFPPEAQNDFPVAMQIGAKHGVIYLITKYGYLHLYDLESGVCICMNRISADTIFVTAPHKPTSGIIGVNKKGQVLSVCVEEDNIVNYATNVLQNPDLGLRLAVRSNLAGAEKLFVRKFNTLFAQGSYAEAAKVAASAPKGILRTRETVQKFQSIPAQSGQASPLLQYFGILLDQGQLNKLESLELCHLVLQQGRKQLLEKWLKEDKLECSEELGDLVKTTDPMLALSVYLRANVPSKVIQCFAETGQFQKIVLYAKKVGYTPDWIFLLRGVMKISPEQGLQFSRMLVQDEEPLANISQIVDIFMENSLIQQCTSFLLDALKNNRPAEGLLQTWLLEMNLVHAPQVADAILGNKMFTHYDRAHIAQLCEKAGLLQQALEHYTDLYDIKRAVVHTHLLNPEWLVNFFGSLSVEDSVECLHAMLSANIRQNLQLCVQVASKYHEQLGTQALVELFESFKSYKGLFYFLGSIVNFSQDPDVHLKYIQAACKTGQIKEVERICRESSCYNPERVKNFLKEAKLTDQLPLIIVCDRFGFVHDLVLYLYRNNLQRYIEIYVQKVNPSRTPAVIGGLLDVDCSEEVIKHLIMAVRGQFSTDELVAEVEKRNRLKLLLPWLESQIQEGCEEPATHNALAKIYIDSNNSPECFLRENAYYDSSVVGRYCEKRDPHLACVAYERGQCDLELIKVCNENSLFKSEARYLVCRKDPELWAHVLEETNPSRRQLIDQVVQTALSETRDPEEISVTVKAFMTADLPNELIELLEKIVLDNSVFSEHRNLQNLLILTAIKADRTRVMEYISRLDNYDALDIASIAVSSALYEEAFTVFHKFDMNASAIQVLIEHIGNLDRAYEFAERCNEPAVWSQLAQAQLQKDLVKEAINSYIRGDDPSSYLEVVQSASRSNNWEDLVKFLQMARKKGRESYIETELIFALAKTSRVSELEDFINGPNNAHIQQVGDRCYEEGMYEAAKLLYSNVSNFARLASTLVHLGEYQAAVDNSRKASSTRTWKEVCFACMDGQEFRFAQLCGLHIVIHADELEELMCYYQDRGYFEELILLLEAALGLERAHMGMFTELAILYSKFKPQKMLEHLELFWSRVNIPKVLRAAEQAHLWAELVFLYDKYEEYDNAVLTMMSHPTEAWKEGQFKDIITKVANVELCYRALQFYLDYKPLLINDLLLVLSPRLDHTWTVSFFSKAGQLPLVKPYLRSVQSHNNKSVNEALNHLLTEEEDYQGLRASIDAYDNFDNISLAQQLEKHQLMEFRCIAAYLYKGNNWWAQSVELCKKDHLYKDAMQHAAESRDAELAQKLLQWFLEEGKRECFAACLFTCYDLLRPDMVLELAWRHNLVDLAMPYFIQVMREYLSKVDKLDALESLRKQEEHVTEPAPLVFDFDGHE
UniProt Q9ULV3: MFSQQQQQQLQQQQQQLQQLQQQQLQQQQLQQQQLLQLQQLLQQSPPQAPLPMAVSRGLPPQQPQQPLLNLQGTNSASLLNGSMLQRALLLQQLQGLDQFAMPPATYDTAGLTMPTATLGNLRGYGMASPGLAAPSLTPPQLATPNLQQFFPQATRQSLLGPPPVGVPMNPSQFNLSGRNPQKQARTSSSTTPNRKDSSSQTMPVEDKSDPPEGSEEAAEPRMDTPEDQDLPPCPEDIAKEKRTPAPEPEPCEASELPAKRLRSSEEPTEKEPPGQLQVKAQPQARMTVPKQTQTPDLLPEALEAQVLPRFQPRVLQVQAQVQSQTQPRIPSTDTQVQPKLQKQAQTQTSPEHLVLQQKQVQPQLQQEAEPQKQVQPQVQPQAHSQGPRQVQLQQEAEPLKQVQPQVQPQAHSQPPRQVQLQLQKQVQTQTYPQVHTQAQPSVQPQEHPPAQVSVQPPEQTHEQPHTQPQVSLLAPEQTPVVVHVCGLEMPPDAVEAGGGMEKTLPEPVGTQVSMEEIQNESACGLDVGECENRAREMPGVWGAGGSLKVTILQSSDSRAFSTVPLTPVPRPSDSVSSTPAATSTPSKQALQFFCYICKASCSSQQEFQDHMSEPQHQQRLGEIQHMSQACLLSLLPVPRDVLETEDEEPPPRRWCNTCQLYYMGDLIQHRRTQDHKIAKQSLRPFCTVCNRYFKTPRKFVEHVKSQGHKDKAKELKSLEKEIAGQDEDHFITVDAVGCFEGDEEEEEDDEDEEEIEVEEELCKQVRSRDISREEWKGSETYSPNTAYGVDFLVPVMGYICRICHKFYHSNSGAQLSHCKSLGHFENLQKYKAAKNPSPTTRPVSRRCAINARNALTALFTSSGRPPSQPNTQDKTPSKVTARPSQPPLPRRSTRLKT
UniProt P36222, whole entry, looked up: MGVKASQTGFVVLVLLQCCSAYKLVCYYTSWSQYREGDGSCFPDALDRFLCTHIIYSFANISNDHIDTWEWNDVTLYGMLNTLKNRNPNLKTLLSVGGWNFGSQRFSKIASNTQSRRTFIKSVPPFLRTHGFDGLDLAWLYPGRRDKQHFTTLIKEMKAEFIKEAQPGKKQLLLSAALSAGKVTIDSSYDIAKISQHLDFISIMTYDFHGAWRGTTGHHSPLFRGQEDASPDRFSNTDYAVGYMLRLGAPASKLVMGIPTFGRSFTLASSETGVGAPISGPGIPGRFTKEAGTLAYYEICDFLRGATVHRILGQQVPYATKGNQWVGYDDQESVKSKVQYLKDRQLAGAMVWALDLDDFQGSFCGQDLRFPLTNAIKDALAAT
UniProt Q9UFW8: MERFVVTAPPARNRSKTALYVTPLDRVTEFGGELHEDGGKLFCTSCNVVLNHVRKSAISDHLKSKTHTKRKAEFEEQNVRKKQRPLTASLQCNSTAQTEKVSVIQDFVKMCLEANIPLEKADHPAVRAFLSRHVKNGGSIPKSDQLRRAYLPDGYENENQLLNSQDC
UniProt O75153: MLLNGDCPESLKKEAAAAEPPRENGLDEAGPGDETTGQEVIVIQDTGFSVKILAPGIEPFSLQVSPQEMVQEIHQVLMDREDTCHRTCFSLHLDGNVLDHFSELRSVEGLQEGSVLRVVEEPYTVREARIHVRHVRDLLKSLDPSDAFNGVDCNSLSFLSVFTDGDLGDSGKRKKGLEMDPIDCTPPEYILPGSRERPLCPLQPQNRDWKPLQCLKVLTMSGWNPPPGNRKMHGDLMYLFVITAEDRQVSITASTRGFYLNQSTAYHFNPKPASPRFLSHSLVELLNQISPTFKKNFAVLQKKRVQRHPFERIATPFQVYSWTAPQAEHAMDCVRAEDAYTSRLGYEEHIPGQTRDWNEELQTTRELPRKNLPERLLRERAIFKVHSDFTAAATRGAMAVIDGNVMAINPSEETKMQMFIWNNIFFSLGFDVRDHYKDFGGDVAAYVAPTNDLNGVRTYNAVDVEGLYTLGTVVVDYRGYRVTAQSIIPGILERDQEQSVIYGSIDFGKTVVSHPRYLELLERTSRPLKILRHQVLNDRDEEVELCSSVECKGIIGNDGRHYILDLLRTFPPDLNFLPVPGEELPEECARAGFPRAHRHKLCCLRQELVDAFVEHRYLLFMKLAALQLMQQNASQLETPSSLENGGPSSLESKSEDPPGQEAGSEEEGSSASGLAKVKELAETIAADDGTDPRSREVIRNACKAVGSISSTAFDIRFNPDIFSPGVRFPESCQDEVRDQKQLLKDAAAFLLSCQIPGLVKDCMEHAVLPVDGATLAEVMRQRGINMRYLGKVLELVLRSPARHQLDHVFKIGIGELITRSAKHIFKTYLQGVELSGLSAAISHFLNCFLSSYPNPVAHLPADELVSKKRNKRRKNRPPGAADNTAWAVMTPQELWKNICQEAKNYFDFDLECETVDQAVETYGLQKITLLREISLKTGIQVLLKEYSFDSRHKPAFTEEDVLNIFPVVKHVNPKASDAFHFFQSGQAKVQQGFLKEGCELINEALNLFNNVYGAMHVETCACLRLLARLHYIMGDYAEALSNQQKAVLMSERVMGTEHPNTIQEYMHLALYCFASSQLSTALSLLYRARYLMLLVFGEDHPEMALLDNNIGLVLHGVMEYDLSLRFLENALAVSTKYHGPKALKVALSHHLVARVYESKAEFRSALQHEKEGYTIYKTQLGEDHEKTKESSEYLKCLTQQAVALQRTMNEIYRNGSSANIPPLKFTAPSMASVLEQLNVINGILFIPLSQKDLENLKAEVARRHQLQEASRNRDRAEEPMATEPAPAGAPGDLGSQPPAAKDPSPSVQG

| Target | probe-labelled cysteine peptide fold change (10 µM) | probe-labelled cysteine peptide fold change (50 µM) |
| --- | --- | --- |
| CLIC6_Q96NY7_641_FLDGDELTLADCNLLPK (UniProt Q96NY7) | -0.145 | 0.02 |
| CHD9_Q3L8U1_1705_ADPALCFLER (UniProt Q3L8U1) | 0.0774 | 0.179 |
| CHD4_Q14839_1018_CCNHPYLFPVAAMEAPK (UniProt Q14839) | -0.00857 | 0.0882 |
| CHORDC1_Q9UHD1_59_TTDFSDFLSIVGCTK (UniProt Q9UHD1) | -0.0281 | -0.115 |
| CHD1L_Q86WJ1_739_YVSGDVTHPQAGAEDALIVHCVDDSGHWGR (UniProt Q86WJ1) | 0.0148 | -0.245 |
| CHORDC1_Q9UHD1_5_ALLCYNR (UniProt Q9UHD1) | -0.0447 | 0.458 |
| CFL1_P23528_39_AVLFCLSEDKK (UniProt P23528) | -0.132 | -0.146 |
| CLCN3_P51790_783_QCLVTHNGR (UniProt P51790) | -0.132 | 0.169 |
| CFL1_P23528_147_CTLAEK (UniProt P23528) | -0.143 | -0.17 |
| CHAF1B_Q13112_283_RPIAHLPCPGK (UniProt Q13112) | -0.0943 | 0.0163 |
| CHD4_Q14839_1827_FAEVECLAESHQHLSK (UniProt Q14839) | 0.119 | -0.223 |
| CHD4_Q14839_396_AYHMVCLDPDMEK (UniProt Q14839) | 0.104 | 0.152 |
| CKAP2_Q8WWK9_100_HCIPLKPSNELTNSTVVIDTHKPK (UniProt Q8WWK9) | -0.363 | -0.423 |
| CHKB_Q9Y259_85_CSLPDHLPSVGEEPR (UniProt Q9Y259) | 0.241 | 0.244 |
| CFL1_P23528_139_LTGIKHELQANCYEEVK (UniProt P23528) | -0.462 | -0.555 |
| CIAO1_O76071_308_VFQEDPNSDPQQPTFSLTAHLHQAHSQDVNCVAWNPK (UniProt O76071) | 0.317 | -0.188 |
| CIAPIN1_Q6FI81_274_SACGNCYLGDAFR (UniProt Q6FI81) | -0.229 | -0.252 |
| CLTCL1_P53675_918_DPHLACVAYER (UniProt P53675) | 0.0446 | -0.112 |
| CFL1_P23528_39_AVLFCLSEDK (UniProt P23528) | -0.0174 | -0.0478 |
| CFL1_P23528_139_KLTGIKHELQANCYEEVK (UniProt P23528) | -0.632 | -0.503 |

| Target | probe-labelled cysteine peptide fold change (10 µM) | probe-labelled cysteine peptide fold change (50 µM) |
| --- | --- | --- |
| CIT_O14578_1272_CAELEEALQK (UniProt O14578) | -0.0113 | 0.0758 |
| CHAF1A_Q13111_465_TLAGSCGK (UniProt Q13111) | -0.183 | -0.234 |
| CHST14_Q8NCH0_159_VACSNWK (UniProt Q8NCH0) | 0.0818 | 0.116 |
| CHD8_Q9HCK8_680_NYSYLHCEWATISQLEK (UniProt Q9HCK8) | 0.135 | 0.03 |
| CIZ1_Q9ULV3_687_QSLRPFCTVCNR (UniProt Q9ULV3) | -0.128 | 0.068 |
| CISD3_P0C7P0_71_KQPFCDGSHFFQR (UniProt P0C7P0) | 0.0265 | 0.0656 |
| CHI3L1_P36222_26_LVCYYTSWSQYR (UniProt P36222) | 0.222 | 0.24 |
| CIP2A_Q8TCG1_358_WLSQPLDGSENCSVLALELFK (UniProt Q8TCG1) | 0.456 | 0.23 |
| CGGBP1_Q9UFW8_92_QRPLTASLQCNSTAQTEK (UniProt Q9UFW8) | -0.0354 | -0.112 |
| CLTC_Q00610_824_VNPSRLPVVIGGLLDVDCSEDVIK (UniProt Q00610) | 0.043 | 0.185 |
| CHKB_Q9Y259_28_CPDTTPK (UniProt Q9Y259) | -0.12 | -0.2 |
| CLUH_O75153_200_ERPLCPLQPQNR (UniProt O75153) | -0.0542 | 0.097 |
| CLTCL1_P53675_617_AHIAQLCEK (UniProt P53675) | 0.0881 | 0.0448 |
| CKAP5_Q14008_637_AVELMDRTEMPCQALVR (UniProt Q14008) | -0.202 | -0.231 |
| CFAP20_Q9Y6A4_160_VQIHANCR (UniProt Q9Y6A4) | -0.00861 | 0.19 |
| CHST14_Q8NCH0_117_AVCGQPGMPR (UniProt Q8NCH0) | 0.169 | 0.162 |
| CES1_P23141_274_KGDVKPLAEQIAITAGCK (UniProt P23141) | 0.0873 | 0.147 |
| CHD1_O14646_376_NASPEDVEYYNCQQELTDDLHK (UniProt O14646) | -0.0832 | -0.0871 |
| CHD6_Q8TD26_172_SCTDSAAR (UniProt Q8TD26) | -0.00541 | -0.0208 |
| CLTC_Q00610_217_MEGNAEESTLFCFAVR (UniProt Q00610) | 0.0197 | 0.0801 |

Copied from the listing for reference:

| Target | probe-labelled cysteine peptide fold change (10 µM) | probe-labelled cysteine peptide fold change (50 µM) |
| --- | --- | --- |
| CIZ1_Q9ULV3_687_QSLRPFCTVCNR (UniProt Q9ULV3) | -0.128 | 0.068 |
| CISD3_P0C7P0_71_KQPFCDGSHFFQR (UniProt P0C7P0) | 0.0265 | 0.0656 |
| CHI3L1_P36222_26_LVCYYTSWSQYR (UniProt P36222) | 0.222 | 0.24 |
| CIP2A_Q8TCG1_358_WLSQPLDGSENCSVLALELFK (UniProt Q8TCG1) | 0.456 | 0.23 |
| CGGBP1_Q9UFW8_92_QRPLTASLQCNSTAQTEK (UniProt Q9UFW8) | -0.0354 | -0.112 |
| CLTC_Q00610_824_VNPSRLPVVIGGLLDVDCSEDVIK (UniProt Q00610) | 0.043 | 0.185 |
| CHKB_Q9Y259_28_CPDTTPK (UniProt Q9Y259) | -0.12 | -0.2 |
| CLUH_O75153_200_ERPLCPLQPQNR (UniProt O75153) | -0.0542 | 0.097 |
| CLTCL1_P53675_617_AHIAQLCEK (UniProt P53675) | 0.0881 | 0.0448 |
